# Experimental data: the supplement of paper PMC4604168 (melanoma cell lines)
# The list shows a part of the results. Many values rest on one well or one pass, so single values are uncertain.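 Cells were imaged in 1,536-well plates, and nuclei stained with an antibody against cleaved PARP were counted against all DNA-stained nuclei to give the apoptosis fraction. Screening doses were chosen to leave most cells alive, and resting and induced cleaved-PARP levels differ strongly between cell lines.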
# What was measured:
# Test in all cases: cleaved PARP positive nuclei fraction relative to DMSO control; melanoma cells; higher = more apoptosis
# Settings in all cases: library dose: low library concentration; 72 h
# 501Mel = test system: 501Mel
# A101D = test system: A101D
# A2058 = test system: A2058
# A375 = test system: A375
# C32 = test system: C32
# CBRC013 = test system: CBRC013 (line from a melanoma biopsy)
# CBRC014 = test system: CBRC014 (line from a melanoma biopsy)
# CBRC016 = test system: CBRC016 (line from a melanoma biopsy)
# CBRC017 = test system: CBRC017 (line from a melanoma biopsy)
# CBRC034 = test system: CBRC034 (line from a melanoma biopsy)
# COLO792 = test system: COLO792
# COLO800 = test system: COLO800
# COLO829 = test system: COLO829
# G361 = test system: G361
# IPC-298 = test system: IPC-298
# IST-MEL1 = test system: IST-MEL1
# LB2518-MEL = test system: LB2518-MEL
# LOXIMVI = test system: LOXIMVI
smiles,measurement,setting,value
"CC1(C)NC(=O)N(c2ccc([N+](=O)[O-])c(C(F)(F)F)c2)C1=O [nilutamide] + COc1cc(N2CCC(N3CCN(C)CC3)CC2)ccc1Nc1ncc(Cl)c(Nc2ccccc2S(=O)(=O)C(C)C)n1 [NVP-TAE684] (first compound 1 µM, partner dose 0.08 µM)",cleaved PARP positive nuclei fraction,501Mel,72.7%
same,cleaved PARP positive nuclei fraction,A101D,181%
same,cleaved PARP positive nuclei fraction,A2058,99%
same,cleaved PARP positive nuclei fraction,A375,77.8%
same,cleaved PARP positive nuclei fraction,C32,137%
same,cleaved PARP positive nuclei fraction,CBRC013,293%
same,cleaved PARP positive nuclei fraction,CBRC014,87.6%
same,cleaved PARP positive nuclei fraction,CBRC016,90.9%
same,cleaved PARP positive nuclei fraction,CBRC017,89.7%
same,cleaved PARP positive nuclei fraction,CBRC034,61.4%
same,cleaved PARP positive nuclei fraction,COLO792,76.2%
same,cleaved PARP positive nuclei fraction,COLO800,167%
same,cleaved PARP positive nuclei fraction,COLO829,226%
same,cleaved PARP positive nuclei fraction,G361,108%
same,cleaved PARP positive nuclei fraction,IPC-298,38.5%
same,cleaved PARP positive nuclei fraction,IST-MEL1,124%
same,cleaved PARP positive nuclei fraction,LB2518-MEL,73.1%
same,cleaved PARP positive nuclei fraction,LOXIMVI,84.1%
"NC(=O)Nc1cc(-c2cccc(F)c2)sc1C(=O)N[C@H]1CCCNC1 + COC(=O)c1sccc1S(=O)(=O)Nc1ccc(Nc2ccccc2)cc1OC [GSK0660] (first compound 0.02 µM, partner dose 1 µM)",cleaved PARP positive nuclei fraction,501Mel,84.6%
same,cleaved PARP positive nuclei fraction,A101D,29.2%
same,cleaved PARP positive nuclei fraction,A2058,58.2%
same,cleaved PARP positive nuclei fraction,A375,172%
same,cleaved PARP positive nuclei fraction,C32,43.9%
same,cleaved PARP positive nuclei fraction,CBRC013,64.7%
same,cleaved PARP positive nuclei fraction,CBRC014,95%
same,cleaved PARP positive nuclei fraction,CBRC016,121%
same,cleaved PARP positive nuclei fraction,CBRC017,230%
same,cleaved PARP positive nuclei fraction,CBRC034,142%
same,cleaved PARP positive nuclei fraction,COLO792,109%
same,cleaved PARP positive nuclei fraction,COLO800,172%
same,cleaved PARP positive nuclei fraction,COLO829,90.9%
same,cleaved PARP positive nuclei fraction,G361,76.5%
same,cleaved PARP positive nuclei fraction,IPC-298,52.6%
same,cleaved PARP positive nuclei fraction,IST-MEL1,37.4%
same,cleaved PARP positive nuclei fraction,LB2518-MEL,68.2%
same,cleaved PARP positive nuclei fraction,LOXIMVI,65%
"CO[C@@H]1[C@H](N(C)C(=O)c2ccccc2)C[C@H]2O[C@]1(C)n1c3ccccc3c3c4c(c5c6ccccc6n2c5c31)C(=O)NC4 [Midostaurin] + O=c1cc(-c2cccc3c2Sc2ccccc2S3)oc(N2CCOCC2)c1 [KU55933] (first compound 0.08 µM, partner dose 1 µM)",cleaved PARP positive nuclei fraction,501Mel,148%
same,cleaved PARP positive nuclei fraction,A101D,128%
same,cleaved PARP positive nuclei fraction,A2058,230%
same,cleaved PARP positive nuclei fraction,A375,142%
same,cleaved PARP positive nuclei fraction,C32,70.5%
same,cleaved PARP positive nuclei fraction,CBRC013,255%
same,cleaved PARP positive nuclei fraction,CBRC014,118%
same,cleaved PARP positive nuclei fraction,CBRC016,105%
same,cleaved PARP positive nuclei fraction,CBRC017,75.9%
same,cleaved PARP positive nuclei fraction,CBRC034,128%
same,cleaved PARP positive nuclei fraction,COLO792,173%
same,cleaved PARP positive nuclei fraction,COLO800,108%
same,cleaved PARP positive nuclei fraction,COLO829,33.8%
same,cleaved PARP positive nuclei fraction,G361,145%
same,cleaved PARP positive nuclei fraction,IPC-298,143%
same,cleaved PARP positive nuclei fraction,IST-MEL1,1250%
same,cleaved PARP positive nuclei fraction,LB2518-MEL,148%
same,cleaved PARP positive nuclei fraction,LOXIMVI,34.6%
"C=CCn1c(=O)c2cnc(Nc3ccc(N4CCN(C)CC4)cc3)nc2n1-c1cccc(C(C)(C)O)n1 + COc1ccc(COc2ccc(Cc3cnc(N)nc3N)cc2OC)cc1 [GW2580] (first compound 0.02 µM, partner dose 1 µM)",cleaved PARP positive nuclei fraction,501Mel,74.3%
same,cleaved PARP positive nuclei fraction,A101D,145%
same,cleaved PARP positive nuclei fraction,A2058,106%
same,cleaved PARP positive nuclei fraction,A375,192%
same,cleaved PARP positive nuclei fraction,C32,104%
same,cleaved PARP positive nuclei fraction,CBRC013,50.9%
same,cleaved PARP positive nuclei fraction,CBRC014,108%
same,cleaved PARP positive nuclei fraction,CBRC016,41.9%
same,cleaved PARP positive nuclei fraction,CBRC017,83.8%
same,cleaved PARP positive nuclei fraction,CBRC034,135%
same,cleaved PARP positive nuclei fraction,COLO792,98.2%
same,cleaved PARP positive nuclei fraction,COLO800,26%
same,cleaved PARP positive nuclei fraction,COLO829,102%
same,cleaved PARP positive nuclei fraction,G361,202%
same,cleaved PARP positive nuclei fraction,IPC-298,79.6%
same,cleaved PARP positive nuclei fraction,IST-MEL1,57.3%
same,cleaved PARP positive nuclei fraction,LB2518-MEL,182%
same,cleaved PARP positive nuclei fraction,LOXIMVI,35.7%
"COCC[n+]1c2c(n(Cc3cnccn3)c1C)C(=O)c1ccccc1C2=O + Oc1cc(-c2nc(-c3ccccc3)[nH]c2-c2ccncc2)ccc1Cl [L779450] (first compound 0.0004 µM, partner dose 0.2 µM)",cleaved PARP positive nuclei fraction,501Mel,85.4%
same,cleaved PARP positive nuclei fraction,A101D,116%
same,cleaved PARP positive nuclei fraction,A2058,400%
same,cleaved PARP positive nuclei fraction,A375,426%
same,cleaved PARP positive nuclei fraction,C32,75.4%
same,cleaved PARP positive nuclei fraction,CBRC013,151%
same,cleaved PARP positive nuclei fraction,CBRC014,149%
same,cleaved PARP positive nuclei fraction,CBRC016,80.5%
same,cleaved PARP positive nuclei fraction,CBRC017,88.9%
same,cleaved PARP positive nuclei fraction,CBRC034,113%
same,cleaved PARP positive nuclei fraction,COLO792,182%
same,cleaved PARP positive nuclei fraction,COLO800,256%
same,cleaved PARP positive nuclei fraction,COLO829,92.5%
same,cleaved PARP positive nuclei fraction,G361,80.5%
same,cleaved PARP positive nuclei fraction,IPC-298,213%
same,cleaved PARP positive nuclei fraction,IST-MEL1,32.5%
same,cleaved PARP positive nuclei fraction,LB2518-MEL,339%
same,cleaved PARP positive nuclei fraction,LOXIMVI,122%
"CC(C)(C)c1cnc(CSc2cnc(NC(=O)C3CCNCC3)s2)o1 + COc1ccc(-c2ccc3c(N4CCOCC4)nc(N4C[C@@H](C)O[C@@H](C)C4)nc3n2)cc1CO [KU0063794] (first compound 0.01 µM, partner dose 0.02 µM)",cleaved PARP positive nuclei fraction,501Mel,94.8%
same,cleaved PARP positive nuclei fraction,A101D,165%
same,cleaved PARP positive nuclei fraction,A2058,77%
same,cleaved PARP positive nuclei fraction,A375,296%
same,cleaved PARP positive nuclei fraction,C32,105%
same,cleaved PARP positive nuclei fraction,CBRC013,118%
same,cleaved PARP positive nuclei fraction,CBRC014,82.4%
same,cleaved PARP positive nuclei fraction,CBRC016,65.3%
same,cleaved PARP positive nuclei fraction,CBRC017,75.3%
same,cleaved PARP positive nuclei fraction,CBRC034,183%
same,cleaved PARP positive nuclei fraction,COLO792,144%
same,cleaved PARP positive nuclei fraction,COLO800,138%
same,cleaved PARP positive nuclei fraction,COLO829,123%
same,cleaved PARP positive nuclei fraction,G361,190%
same,cleaved PARP positive nuclei fraction,IPC-298,27.9%
same,cleaved PARP positive nuclei fraction,IST-MEL1,62.1%
same,cleaved PARP positive nuclei fraction,LB2518-MEL,77.6%
same,cleaved PARP positive nuclei fraction,LOXIMVI,89.9%
"O=C(CCCCCCC(=O)Nc1ccccc1)NO [vorinostat] + O=c1cc(-c2cccc3c2Sc2ccccc2S3)oc(N2CCOCC2)c1 [KU55933] (first compound 0.08 µM, partner dose 1 µM)",cleaved PARP positive nuclei fraction,501Mel,167%
same,cleaved PARP positive nuclei fraction,A101D,150%
same,cleaved PARP positive nuclei fraction,A2058,76.6%
same,cleaved PARP positive nuclei fraction,A375,96.5%
same,cleaved PARP positive nuclei fraction,C32,116%
same,cleaved PARP positive nuclei fraction,CBRC013,172%
same,cleaved PARP positive nuclei fraction,CBRC014,86.4%
same,cleaved PARP positive nuclei fraction,CBRC016,60.2%
same,cleaved PARP positive nuclei fraction,CBRC017,84.6%
same,cleaved PARP positive nuclei fraction,CBRC034,121%
same,cleaved PARP positive nuclei fraction,COLO792,78.4%
same,cleaved PARP positive nuclei fraction,COLO800,64.1%
same,cleaved PARP positive nuclei fraction,COLO829,78.6%
same,cleaved PARP positive nuclei fraction,G361,112%
same,cleaved PARP positive nuclei fraction,IPC-298,107%
same,cleaved PARP positive nuclei fraction,IST-MEL1,26.9%
same,cleaved PARP positive nuclei fraction,LB2518-MEL,82.5%
same,cleaved PARP positive nuclei fraction,LOXIMVI,25.1%
"C#Cc1cccc(Nc2ncnc3cc(OCCOC)c(OCCOC)cc23)c1 [erlotinib] + c1cc(-c2cnn3cc(-c4ccc(OCCN5CCCCC5)cc4)cnc23)ccn1 [Dorsomorphin] (first compound 0.8 µM, partner dose 0.4 µM)",cleaved PARP positive nuclei fraction,501Mel,99.3%
same,cleaved PARP positive nuclei fraction,A101D,301%
same,cleaved PARP positive nuclei fraction,A2058,42.6%
same,cleaved PARP positive nuclei fraction,A375,74.3%
same,cleaved PARP positive nuclei fraction,C32,28.1%
same,cleaved PARP positive nuclei fraction,CBRC013,123%
same,cleaved PARP positive nuclei fraction,CBRC014,106%
same,cleaved PARP positive nuclei fraction,CBRC016,138%
same,cleaved PARP positive nuclei fraction,CBRC017,88.1%
same,cleaved PARP positive nuclei fraction,CBRC034,83%
same,cleaved PARP positive nuclei fraction,COLO792,202%
same,cleaved PARP positive nuclei fraction,COLO800,165%
same,cleaved PARP positive nuclei fraction,COLO829,99.2%
same,cleaved PARP positive nuclei fraction,G361,106%
same,cleaved PARP positive nuclei fraction,IPC-298,102%
same,cleaved PARP positive nuclei fraction,IST-MEL1,43.4%
same,cleaved PARP positive nuclei fraction,LB2518-MEL,279%
same,cleaved PARP positive nuclei fraction,LOXIMVI,97.6%
"Cc1cc(N2CCOCC2)cc2[nH]c(-c3c(NC[C@@H](O)c4cccc(Cl)c4)cc[nH]c3=O)nc12 + N#Cc1c(O)c2c(-c3ccc(-c4ccccc4O)cc3)csc2[nH]c1=O [A769662] (first compound 0.2 µM, partner dose 2 µM)",cleaved PARP positive nuclei fraction,501Mel,84.9%
same,cleaved PARP positive nuclei fraction,A101D,37.6%
same,cleaved PARP positive nuclei fraction,A2058,90.1%
same,cleaved PARP positive nuclei fraction,A375,163%
same,cleaved PARP positive nuclei fraction,C32,249%
same,cleaved PARP positive nuclei fraction,CBRC013,190%
same,cleaved PARP positive nuclei fraction,CBRC014,115%
same,cleaved PARP positive nuclei fraction,CBRC016,44.5%
same,cleaved PARP positive nuclei fraction,CBRC017,68.5%
same,cleaved PARP positive nuclei fraction,CBRC034,130%
same,cleaved PARP positive nuclei fraction,COLO792,78.6%
same,cleaved PARP positive nuclei fraction,COLO800,167%
same,cleaved PARP positive nuclei fraction,COLO829,44.6%
same,cleaved PARP positive nuclei fraction,G361,95.3%
same,cleaved PARP positive nuclei fraction,IPC-298,43.8%
same,cleaved PARP positive nuclei fraction,IST-MEL1,90.2%
same,cleaved PARP positive nuclei fraction,LB2518-MEL,85.5%
same,cleaved PARP positive nuclei fraction,LOXIMVI,150%

# Not a retest: entries from further up.
smiles,measurement,setting,value
"NC(=O)Nc1cc(-c2cccc(F)c2)sc1C(=O)N[C@H]1CCCNC1 + COC(=O)c1sccc1S(=O)(=O)Nc1ccc(Nc2ccccc2)cc1OC [GSK0660] (first compound 0.02 µM, partner dose 1 µM)",cleaved PARP positive nuclei fraction,CBRC014,95%
same,cleaved PARP positive nuclei fraction,CBRC016,121%
same,cleaved PARP positive nuclei fraction,CBRC017,230%
same,cleaved PARP positive nuclei fraction,CBRC034,142%
same,cleaved PARP positive nuclei fraction,COLO792,109%
same,cleaved PARP positive nuclei fraction,COLO800,172%
same,cleaved PARP positive nuclei fraction,COLO829,90.9%
